Measurements published in PMC7251106.
These are yes or no findings as the source states them, for the method shown. In cells and extracts the contact can be indirect. These calls come from enrichment with a bait or labelling near it, and not all partners need be listed.

By UniProt entry, the sequences of proteins in these tests, tags left out.
UniProt Q07065: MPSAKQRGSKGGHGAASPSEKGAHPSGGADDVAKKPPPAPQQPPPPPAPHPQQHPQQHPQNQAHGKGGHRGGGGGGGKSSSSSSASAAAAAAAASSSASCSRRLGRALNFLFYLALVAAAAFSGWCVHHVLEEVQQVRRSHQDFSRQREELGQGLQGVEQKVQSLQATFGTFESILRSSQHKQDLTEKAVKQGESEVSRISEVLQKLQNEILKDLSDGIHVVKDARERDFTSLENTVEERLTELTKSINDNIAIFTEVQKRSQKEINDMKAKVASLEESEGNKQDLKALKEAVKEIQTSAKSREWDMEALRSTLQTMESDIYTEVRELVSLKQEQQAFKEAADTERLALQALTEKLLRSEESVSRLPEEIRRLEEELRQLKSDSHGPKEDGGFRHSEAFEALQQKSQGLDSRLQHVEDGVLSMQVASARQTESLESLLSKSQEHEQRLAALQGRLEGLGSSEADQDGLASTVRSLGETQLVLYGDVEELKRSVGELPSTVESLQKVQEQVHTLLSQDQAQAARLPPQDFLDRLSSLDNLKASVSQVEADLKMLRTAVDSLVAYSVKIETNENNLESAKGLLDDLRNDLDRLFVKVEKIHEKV
UniProt P48681: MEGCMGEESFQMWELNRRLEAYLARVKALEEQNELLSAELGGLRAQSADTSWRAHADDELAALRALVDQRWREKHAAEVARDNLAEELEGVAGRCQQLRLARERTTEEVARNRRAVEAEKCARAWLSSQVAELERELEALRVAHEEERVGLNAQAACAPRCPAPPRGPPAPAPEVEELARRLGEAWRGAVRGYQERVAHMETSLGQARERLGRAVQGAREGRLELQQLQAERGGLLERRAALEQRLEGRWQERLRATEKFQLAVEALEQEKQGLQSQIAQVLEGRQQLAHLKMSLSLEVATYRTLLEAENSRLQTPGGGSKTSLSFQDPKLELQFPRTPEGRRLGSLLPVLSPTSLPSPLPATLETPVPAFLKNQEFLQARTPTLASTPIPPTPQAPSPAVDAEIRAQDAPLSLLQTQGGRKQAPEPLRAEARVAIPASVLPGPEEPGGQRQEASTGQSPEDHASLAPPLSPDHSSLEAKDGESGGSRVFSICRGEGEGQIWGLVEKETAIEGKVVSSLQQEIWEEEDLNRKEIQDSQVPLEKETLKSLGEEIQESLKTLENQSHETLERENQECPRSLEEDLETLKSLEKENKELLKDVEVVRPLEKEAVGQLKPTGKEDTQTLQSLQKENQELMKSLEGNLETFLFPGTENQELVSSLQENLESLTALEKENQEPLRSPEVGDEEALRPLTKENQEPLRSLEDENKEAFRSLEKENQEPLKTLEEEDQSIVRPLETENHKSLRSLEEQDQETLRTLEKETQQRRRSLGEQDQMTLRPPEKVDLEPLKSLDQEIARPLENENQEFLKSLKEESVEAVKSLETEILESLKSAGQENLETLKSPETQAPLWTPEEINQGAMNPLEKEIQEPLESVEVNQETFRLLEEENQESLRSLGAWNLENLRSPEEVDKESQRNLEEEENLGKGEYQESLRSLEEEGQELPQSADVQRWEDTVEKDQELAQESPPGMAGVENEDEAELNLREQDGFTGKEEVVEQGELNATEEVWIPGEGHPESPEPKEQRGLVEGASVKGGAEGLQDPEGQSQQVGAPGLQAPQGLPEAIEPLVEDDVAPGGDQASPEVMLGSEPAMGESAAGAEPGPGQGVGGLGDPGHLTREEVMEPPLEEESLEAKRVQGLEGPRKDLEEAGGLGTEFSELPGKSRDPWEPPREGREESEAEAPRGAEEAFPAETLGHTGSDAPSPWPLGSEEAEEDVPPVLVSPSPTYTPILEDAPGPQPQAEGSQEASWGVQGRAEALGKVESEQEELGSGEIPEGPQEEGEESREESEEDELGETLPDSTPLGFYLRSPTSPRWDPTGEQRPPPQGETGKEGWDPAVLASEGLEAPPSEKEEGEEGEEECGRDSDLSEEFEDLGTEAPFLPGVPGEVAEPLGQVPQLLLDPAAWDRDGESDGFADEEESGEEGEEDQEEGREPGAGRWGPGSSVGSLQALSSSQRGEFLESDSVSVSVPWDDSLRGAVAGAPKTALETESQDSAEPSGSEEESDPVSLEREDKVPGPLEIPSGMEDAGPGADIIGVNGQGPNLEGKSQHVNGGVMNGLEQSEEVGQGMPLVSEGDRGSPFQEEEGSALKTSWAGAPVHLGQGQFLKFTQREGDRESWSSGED

Molecular target: T1, Vascular endothelial (VE)-cadherin (human (endogenous in HUVEC)) (UniProt P33151)
T1 sequence: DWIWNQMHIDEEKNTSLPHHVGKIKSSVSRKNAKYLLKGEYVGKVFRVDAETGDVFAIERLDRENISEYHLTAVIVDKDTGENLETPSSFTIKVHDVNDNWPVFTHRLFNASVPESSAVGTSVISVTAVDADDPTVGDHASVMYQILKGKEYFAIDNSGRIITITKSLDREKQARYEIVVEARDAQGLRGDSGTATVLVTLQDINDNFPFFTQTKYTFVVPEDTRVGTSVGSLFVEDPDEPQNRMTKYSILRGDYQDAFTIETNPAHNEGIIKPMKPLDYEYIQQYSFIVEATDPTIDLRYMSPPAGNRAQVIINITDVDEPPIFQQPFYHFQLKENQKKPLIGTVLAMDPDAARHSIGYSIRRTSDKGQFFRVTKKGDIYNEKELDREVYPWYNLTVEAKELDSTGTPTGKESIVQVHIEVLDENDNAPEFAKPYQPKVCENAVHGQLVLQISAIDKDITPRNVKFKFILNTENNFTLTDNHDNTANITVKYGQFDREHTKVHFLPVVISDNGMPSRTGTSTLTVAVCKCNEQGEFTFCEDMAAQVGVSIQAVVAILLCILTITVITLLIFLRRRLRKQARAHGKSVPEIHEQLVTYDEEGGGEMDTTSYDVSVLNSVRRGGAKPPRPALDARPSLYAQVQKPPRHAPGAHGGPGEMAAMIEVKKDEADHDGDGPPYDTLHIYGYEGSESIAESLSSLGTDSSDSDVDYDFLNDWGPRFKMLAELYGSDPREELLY
Assay: affinity purification with mass spectrometry; 0.7 mg HUVEC lysate (si ctr or si LASSIE, 48 h post transfection) with anti-VE-cadherin antibody and Dynabeads protein G, 1.5 h at 4 °C; 25 mM Tris-HCl pH 7.5, 100 mM NaCl, 10 mM MgCl2, 1 mM EDTA, 10% glycerol, 1% NP-40; beads analysed by MS

| binding | Substance |
| --- | --- |
| binds | CKAP4 (from UniProt Q07065 1-602) |
| binds | nestin (from UniProt P48681 1-1621) |
